Test results reported in paper PMC10163288.
Some of the results follow.

B1: il10ra_site1_normal_mot_HHH_b1_02397_af2_000000085_0001_39_57_H_._HHH_b2_06026_0001_0000400018_0000001_0 (protein)
chain: SSSDEEEKEVEELAEEARRLAEEGNPEEAARLLQEALRFAFRLRNAELLQLLWRVAKELAKSSSS
B2: il10ra_site1_normal_mot_d2735b3c0fe9b97dc03c9ec5d23a03fd_0001_1_af2_000000071_0001_17_32_H_._HHH_b1_04565_af2_0001_0000200013_0000002_0_af2pred_dldesign_0_af2pr … (protein)
chain: SSSSSSNERQRIRAILYYARLSSNPDAAKKALEYAIELAKKINDEELLAEAQAELEKLKSSSSSS
B3: il10ra_site1_sap_17_mot_e1dd4851c59bc1cdde016f988f6856bd_0001_1_000000200_0001_16_31_H_._HHH_b1_00930_af2_0001_0000800027_0000001_0_0001 (protein)
chain: SQLIERSLKWALERGDEEVAKAAVEALLRQQGVPPEEIEKILEEFEELLKKDPEEAVRFVVELLE
B4: il10ra_site1_sap_22_mot_HHH_b1_03900_000000129_0001_1_16_H_._HHH_b1_07741_0001_0000100003_0000002_0_0001_af2pred_dldesign_0_af2pred (protein)
chain: SSSSSDLEALYARALELLDAGRIDEALELLRELSRIALEKKDPEAIKLALELAKRLDEKASSSSS
B5: il10ra_site1_normal_mot_8756ee2cf497b5429c717dfc0c0bcfd6_0001_000000186_0001_1_13_H_._HHH_b1_07326_af2_0001_0000300022_0000001_1_af2pred_0001 (protein)
chain: SSSSSSDLVELLRRIIKLLADGNPEEAEELVEEAKELAKELNDEVARAILEFLEKQINSSSSSSS
B6: il10ra_site1_sap_29_mot_HHH_b1_00356_000000295_0001_1_15_H_._HHH_b1_07975_0001_0000600040_0000001_0_0001 (protein)
chain: DIEEVLEEAARKRDPELAKEALRLIEEEAGDPREVIKILAELVREAFRNNDKALLHALWHVVHLL
B7: il10ra_site1_normal_mot_HHH_b2_08186_000000021_0001_43_56_H_._HHH_b2_03507_af2_0001_0000100001_0000001_1 (protein)
chain: SSSSDEEEEELRELIEELEELLKRGDREEVSRLAQRALRLAFRLRDPEALQRIWKILRKVSSSSS
B8: il10ra_site1_normal_mot_HHH_b1_02397_af2_000000085_0001_39_57_H_._HHH_b2_06748_af2_0001_0000100005_0000002_0 (protein)
chain: SSSSDEEELSREVQEELERLAEEGDREEFARLLQEALRLAFRLSDPELLRALWELAKRAASSSSS
B9: il10ra_site1_normal_mot_HHH_b1_06816_000000239_0001_1_19_H_._HHH_b2_02034_0001_0000800035_0000001_0_af2pred_0001 (protein)
chain: SSSSSSDLEEEAEELLEQVEKIDNPEERTRVARKALELAIEAGDPELAREIARAAAKLSSSSSSS
B10: il10ra_site1_sap_15_mot_HHH_b1_08279_000000069_0001_43_57_H_._HHH_b2_03796_0001_0000300034_0000002_0_0001 (protein)
chain: SSSSSDEEYEERVEELLEEAKQIPDPRERNEVLLEAVQLAIQGQDPELLREVWRVLEELNSSSSS
B11: il10ra_site1_sap_18_mot_HHH_b1_00103_000000293_0001_1_15_H_._HHH_b2_02954_0001_0000200007_0000002_0_0001_af2pred_0001 (protein)
chain: SSSSSELEERALKLFLRIAELLRNGDPEEAEKLLEELREVVEEIGDPRLELALRALELAASSSSS
B12: il10ra_site1_sap_28_mot_HHH_b1_05185_000000011_0001_22_39_H_._HHH_b1_05552_af2_0001_0000400023_0000001_0_0001_af2pred_0001 (protein)
chain: SSSSDEFEELEEEAEELVKRGDEEELAEVIALLLKLANRLNDKEAAHRVLRLAIELARLLSSSSS
B13: il10ra_site1_sap_32_mot_HHH_b2_03434_000000017_0001_1_19_H_._HHH_b1_05522_af2_0001_0000100003_0000001_0_0001_af2pred_0001 (protein)
chain: SSSSSDTEREAAHVFLRAAEALQEGDEEEAKELLRQLEEIAEEGNSELAKRSVRFLRAMLSSSSS
B14: il10ra_site1_normal_mot_HHH_b2_00622_af2_000000153_0001_40_57_H_._HHH_b1_02970_af2_0001_0000300024_0000001_0_af2pred_0001 (protein)
chain: SSSSDRDEKLLRRQIRAAERALELGNPERAKLALRFALFNARATGDPLAEEIEELIEEIGSSSSS
B15: il10ra_site1_normal_mot_HHH_b2_00441_000000147_0001_1_18_H_._HHH_b2_02085_0001_0000200018_0000001_0 (protein)
chain: SSSSDESIRRAIRILLEVAKRIEDEEYVKLSLRFAEALAKANNDDELERLVEEVEQEIEESSSSS
B16: il10ra_site1_sap_15_mot_d910f416147260c93593610934442136_0001_000000186_0001_34_49_H_._HHH_b2_05165_af2_0001_0000400004_0000002_0_0001 (protein)
chain: SSSSEAEEVYKAIRRVLELREEGNEEEAEELLEKLIEKLEELGNRTLVVNARFLLKVLRRLSSSS
B17: il10ra_site1_sap_13_mot_HHH_b1_05084_000000041_0001_41_57_H_._HHH_b2_00953_0001_0000200008_0000001_0_0001 (protein)
chain: SSSSSSQELYELIRKAIELMAEGNPEEAKEVVEEAERIAEEENNRVLLWLLEWLLKRLSSSSSSS
B18: il10ra_site1_normal_mot_HHH_b2_03220_af2_000000223_0001_23_40_H_._HHH_b1_07482_0001_0000500046_0000001_0 (protein)
chain: SSSSSEEAEEVWELLRRALEIREKDPEEARELVERAEEIAEENNNLNALFAIRFLLRDINSSSSS
B19: il10ra_site1_normal_mot_HHH_b1_06914_000000280_0001_1_18_H_._HHH_b2_02171_0001_0000100008_0000001_0 (protein)
chain: SSSSTELAEEVYKASREALELLSEGNPEEAEKLLEEILREAEELGNEFLALILRAVLEALKSSSS
B20: il10ra_site1_sap_21_mot_HHH_b1_07369_af2_000000079_0001_1_18_H_._c1e259e16b19a3635eeea4582300f2e1_0001_0001_0000200011_0000001_0_0001 (protein)
chain: SSSSDVEELLEEAREATEEGDEEAVSELSLKAVHHAIQRQDPELLREVWRVNKELGERLKSSSSS
B21: il10ra_site1_normal_mot_HHH_b1_07380_000000129_0001_1_20_H_._HHH_b1_05236_0001_0000100001_0000002_0 (protein)
chain: SSSSSEEVYRLSREAAELLAEGNPEEAEKVLEEARQLAEEEGNRVLLFNVRHLLRDIEEERSSSS
B22: il10ra_site1_sap_18_mot_HHH_b2_07488_000000216_0001_1_17_H_._HHH_b1_00600_af2_0001_0000500021_0000002_0_0001 (protein)
chain: SSSSDWEEMLEWMAHSLELAEELNDPKYIRNAARFLLRAAEQNNDEEIFERAERILKEVNSSSSS
B23: il10ra_site1_normal_mot_HHH_b1_01879_000000050_0001_1_18_H_._HHH_b1_03808_0002_0000400012_0000001_0_af2pred_0001 (protein)
chain: SSSSDDEVEELLQILAQLSARNPEFAEELFEVLVEVYRLLANGNPEEARRLAEEAIERVEKSSSS
B24: il10ra_site1_normal_mot_HHH_b2_00108_000000012_0001_38_56_H_._HHH_b2_04021_0001_0000700049_0000001_0 (protein)
chain: SSSSTEEIASRFHEELLRELLKAGDEEQLEATLEAAKALAEQLNDEELEEEVEEILRELKSSSSS
B25: il10ra_site1_normal_mot_HHH_b2_06979_000000158_0001_42_57_H_._HHH_b1_02740_0001_0000100006_0000001_0 (protein)
chain: SSSSNESSQLVREAARRARQLFEEGNPEEARRLLEEALEELEELGNELAVLNIRFLLRDLSSSSS
B26: il10ra_site1_normal_mot_HHH_b2_04050_000000291_0001_1_20_H_._HHH_b2_03360_0001_0000200021_0000002_0 (protein)
chain: SSSSSEEQRLIELSLELARALIRGDEEEARELVEEAKELAEELGNEEALRVLEDLEQVLKSSSSS
B27: il10ra_site1_sap_20_mot_HHH_b2_00564_af2_000000012_0001_18_34_H_._HHH_b2_07578_af2_0001_0000100001_0000001_1_0001 (protein)
chain: SDLSHEFFRLSKEALERAAHLSPEQRQAVARAIMEALRLAFNAKSEEEVEEVLELLEKVVKEVIS
B28: il10ra_site1_normal_mot_HHH_b2_03220_af2_000000223_0001_23_40_H_._HHH_b2_01401_af2_0001_0000100009_0000001_0 (protein)
chain: SSSSSEEAEEIWEIIREALELLAQGDKEEAKQLLEEALELAEELGSRVLRHVIEFALRQVSSSSS
B29: il10ra_site1_normal_mot_HHH_b2_02053_af2_000000006_0001_3_19_H_._HHH_b1_05925_0001_0000100008_0000001_0 (protein)
chain: SSSSDTEELYELLRRALELRAQGNPEEAEELLEEALRLARELGSELFVFVIEHLLRLLEGSSSSS
B30: il10ra_site1_sap_24_mot_HHH_b2_06857_af2_000000179_0001_42_54_H_._HHH_b1_04179_af2_0001_0000200006_0000001_1_0001 (protein)
chain: SSSSSDATRELYRLSKEAAELLAEGNPEEAQRVAEEAFELAEEAGNRVLLHAIEHLLRDISSSSS
B31: il10ra_site1_normal_mot_HHH_b1_02397_af2_000000085_0001_39_57_H_._HHH_b2_07534_0001_0000600062_0000001_1 (protein)
chain: SSSSDEEEEELRRLLEEVEELLRRGDPERAAEVTQRLLRFIFRLRDEEALHELHELVARHKSSSS
B32: il10ra_site1_normal_mot_HHH_b2_06864_af2_000000190_0001_1_20_H_._HHH_b1_07149_0001_0000300031_0000001_0 (protein)
chain: SSSSSDAQELFRLAREAAEELKKLSEEEAEELVQEILRILERHGDELTARALRFFVRLVNSSSSS
B33: il10ra_site1_sap_21_mot_823161b9c8d27cd62067cdb724e47ff0_0001_000000061_0001_17_32_H_._71fa3b3ce36e4cc21c7110f2bf27d1ce_0001_0001_0000100005_0000001_0_0001 (protein)
chain: SSSSAEEEFERVARAVEEASEAWERGDPEEAREIIEEALELAREANDEITVRALEHFLKALSSSS
B34: il10ra_site1_sap_16_mot_HHH_b1_04514_000000156_0001_1_18_H_._HHH_b2_08139_af2_0001_0000600025_0000001_0_0001 (protein)
chain: SSSSDLEQRALRLAQEAFEAALRGNPEEAEEILEEAEEIAERAGSERLLRMIESLLRAVRSSSSS
B35: il10ra_site1_normal_mot_ems_3hM_3349_af2_000000150_0001_25_42_H_._fc02e248b26fd4a305a7b86d1b4b774b_0001_af2_0001_0000200007_0000002_0 (protein)
chain: SEEEEELARLLKEGDPRAEEEIEELIAELLGVPPELARLALEQQEEQNGDPEEAVKAALASARAV
B36: il10ra_site1_sap_17_mot_HHH_b1_00456_000000263_0001_1_17_H_._cd286a6fd732cb1c2c19163a91e0928f_0001_1_0001_0000400004_0000001_0_0001_af2pred_dldesign_0_af2pred (protein)
chain: SSSSSAAEELLTAASQEMLRLRKAGDAASAAALTAAATAELTALGDADAVRQLQILQDYLLSSSS
B37: il10ra_site1_normal_mot_HHH_b1_02809_af2_000000277_0001_40_57_H_._HHH_b2_07682_0001_0000300022_0000001_0_af2pred_0001 (protein)
chain: SSSSSRDEEAVRRALRLAKWLREAGDEEAVRKYLKAAKILAKRIGDPELEELVERVEEHLSSSSS

What follows are binders tested against il10ra, Q13651 (assay: yeast display titration).

Apparent Kd, inactive:
B1 no binding seen
B2 no binding seen
B3 no binding seen
B4 no binding seen
B5 no binding seen
B6 no binding seen
B7 no binding seen
B8 no binding seen
B9 no binding seen
B10 no binding seen
B11 no binding seen
B12 > 1500 nM
B13 no binding seen
B14 no binding seen
B15 no binding seen
B16 no binding seen
B17 no binding seen
B18 no binding seen
B19 no binding seen
B20 no binding seen
B21 no binding seen
B22 no binding seen
B23 no binding seen
B24 no binding seen
B25 no binding seen
B26 no binding seen
B27 no binding seen
B28 no binding seen
B29 no binding seen
B30 no binding seen
B31 no binding seen
B32 no binding seen
B33 no binding seen
B34 no binding seen
B35 no binding seen
B36 no binding seen
B37 no binding seen

For convenience, part of the list above.
Apparent Kd, inactive:
B31 no binding seen
B32 no binding seen
